Results taken from paper doi:10.1101/2025.10.31.25337980.
No constants are given. Whether binding was seen depends on the method and setting. In cells and extracts the contact can be indirect. These calls come from enrichment with a bait or labelling near it, and not all partners need be listed.

The chains behind the UniProt entries cited, without tags or fusion partners.
UniProt P55258: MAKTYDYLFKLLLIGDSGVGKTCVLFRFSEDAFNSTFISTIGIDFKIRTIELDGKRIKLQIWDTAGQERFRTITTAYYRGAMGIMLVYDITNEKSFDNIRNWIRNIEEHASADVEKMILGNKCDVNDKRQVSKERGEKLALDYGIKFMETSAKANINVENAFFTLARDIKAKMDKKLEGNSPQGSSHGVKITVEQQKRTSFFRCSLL

Biological target: T1, TBC1D8 (mouse (endogenous in mouse spleen)) (UniProt Q9Z1A9)
T1 sequence: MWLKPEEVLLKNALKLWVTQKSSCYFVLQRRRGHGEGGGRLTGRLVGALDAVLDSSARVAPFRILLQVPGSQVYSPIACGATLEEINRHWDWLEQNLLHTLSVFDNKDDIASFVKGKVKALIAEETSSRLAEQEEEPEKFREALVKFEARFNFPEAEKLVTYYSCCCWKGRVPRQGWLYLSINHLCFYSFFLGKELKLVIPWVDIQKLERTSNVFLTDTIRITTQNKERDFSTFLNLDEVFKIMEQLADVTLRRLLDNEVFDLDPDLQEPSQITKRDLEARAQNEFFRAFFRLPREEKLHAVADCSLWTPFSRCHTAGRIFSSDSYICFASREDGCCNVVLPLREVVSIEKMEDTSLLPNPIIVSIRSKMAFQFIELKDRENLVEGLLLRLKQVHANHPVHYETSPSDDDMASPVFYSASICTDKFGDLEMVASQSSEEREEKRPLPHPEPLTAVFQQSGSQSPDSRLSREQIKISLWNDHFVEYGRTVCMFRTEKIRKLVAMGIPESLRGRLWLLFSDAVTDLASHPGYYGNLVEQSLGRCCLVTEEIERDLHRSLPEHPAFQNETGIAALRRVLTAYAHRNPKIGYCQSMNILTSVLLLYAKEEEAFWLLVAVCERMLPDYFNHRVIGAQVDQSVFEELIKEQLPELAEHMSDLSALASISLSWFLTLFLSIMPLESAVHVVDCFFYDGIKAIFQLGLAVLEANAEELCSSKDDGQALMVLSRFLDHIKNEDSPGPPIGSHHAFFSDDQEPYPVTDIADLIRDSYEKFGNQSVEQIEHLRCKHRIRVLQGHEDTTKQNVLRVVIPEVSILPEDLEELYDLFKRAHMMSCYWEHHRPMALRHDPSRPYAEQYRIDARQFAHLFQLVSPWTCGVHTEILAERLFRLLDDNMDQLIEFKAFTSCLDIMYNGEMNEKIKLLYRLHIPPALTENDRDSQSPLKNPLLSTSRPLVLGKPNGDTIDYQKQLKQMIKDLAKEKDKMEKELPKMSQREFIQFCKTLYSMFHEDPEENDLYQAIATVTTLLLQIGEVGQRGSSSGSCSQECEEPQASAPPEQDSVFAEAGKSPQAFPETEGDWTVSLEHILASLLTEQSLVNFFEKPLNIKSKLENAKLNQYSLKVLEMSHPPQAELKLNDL
Test: affinity purification with mass spectrometry

binding: binds
Substance: RAB8A (from UniProt P55258 1-207)
